# PubChem BioAssay AID1224831 | NIAID – 2016
# Test: 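Confirming genome-wide hits on LPS-triggered TNF-alpha induction with independent siRNA sequences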 (follow-up of hits)
# System: human THP-1 B5 monocytic leukaemia cells carrying a TNF promoter luciferase reporter, made macrophage-like with PMA
# Reagent: single siRNA against human genes, 50 nM
# Timing: about 68 h of knock-down, then 4 h LPS
# Conditions: LPS (Salmonella minnesota, TLR-grade) at 10 ng/ml for 4 h; PMA 5 ng/ml present during knock-down
# Read-out: 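Firefly to renilla luciferase ratio of a TNF promoter reporter after 4 h LPS, scaled to plate median, turned into robust z-score, averaged over replicates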
# Scale: TNF reporter z-score: higher = stronger LPS-induced TNF reporter signal; z-score, median over gene's siRNAs: higher = stronger TNF reporter signal across the gene's siRNAs
# Rule for the call: 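Two-sided call: reduced or raised TNF reporter signal counts as active once mean z reaches about -1 or below, or about 1.5 or above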
# Meaning of the calls: active = changed TNF reporter (either direction); inactive = little change
# This is one part, drawn at random, of about 3,500 reagents. 731 of them (21%) were called active. 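Active means either lowered or raised reporter signal; the gene-median score did not drive the per-siRNA calls.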 Unmarked entries are inactive. Reagents against one gene are numbered here.
The opening 4 entries, ahead of the listing:
Target gene,reagent,"TNF reporter z-score, replicate mean","z-score, median over gene's siRNAs"
CASKIN1 (CASK interacting protein 1),1,0.98,0.87
CASKIN1 (CASK interacting protein 1),2,0.76,0.87
CASKIN1 (CASK interacting protein 1),3,1.54 (active),0.87
CASKIN1 (CASK interacting protein 1),4,-0.27,0.87

The list itself, from the start:
Target gene,reagent,"TNF reporter z-score, replicate mean","z-score, median over gene's siRNAs"
CASKIN1 (CASK interacting protein 1),1,0.98,0.87
CASKIN1 (CASK interacting protein 1),2,0.76,0.87
CASKIN1 (CASK interacting protein 1),3,1.54 (active),0.87
CASKIN1 (CASK interacting protein 1),4,-0.27,0.87
CASKIN1 (CASK interacting protein 1),5,3.02 (active),0.87
CASKIN1 (CASK interacting protein 1),6,0.67,0.87
DIPK1B (divergent protein kinase domain 1B),1,-0.43,0.09
DIPK1B (divergent protein kinase domain 1B),2,-0.09,0.09
DIPK1B (divergent protein kinase domain 1B),3,0.64,0.09
DIPK1B (divergent protein kinase domain 1B),4,0.27,0.09
DIPK1B (divergent protein kinase domain 1B),5,3.82 (active),0.09
DIPK1B (divergent protein kinase domain 1B),6,-0.29,0.09
MPZL1 (myelin protein zero like 1),1,0.85,0.605
MPZL1 (myelin protein zero like 1),2,-0.83,0.605
MPZL1 (myelin protein zero like 1),3,0.53,0.605
MPZL1 (myelin protein zero like 1),4,0.68,0.605
MPZL1 (myelin protein zero like 1),5,1.63 (active),0.605
MPZL1 (myelin protein zero like 1),6,-0.61,0.605
SPAG1 (sperm associated antigen 1),1,-0.77,-0.705
SPAG1 (sperm associated antigen 1),2,-0.64,-0.705
SPAG1 (sperm associated antigen 1),3,1.25,-0.705
SPAG1 (sperm associated antigen 1),4,-0.81,-0.705
SPAG1 (sperm associated antigen 1),5,-1.31 (active),-0.705
SPAG1 (sperm associated antigen 1),6,0.8,-0.705
EFCAB11 (EF-hand calcium binding domain 11),1,-0.5,-0.685
EFCAB11 (EF-hand calcium binding domain 11),2,-0.89,-0.685
EFCAB11 (EF-hand calcium binding domain 11),3,-2.52 (active),-0.685
EFCAB11 (EF-hand calcium binding domain 11),4,0.29,-0.685
EFCAB11 (EF-hand calcium binding domain 11),5,-0.87,-0.685
EFCAB11 (EF-hand calcium binding domain 11),6,-0.5,-0.685
HTRA2 (HtrA serine peptidase 2),1,-0.4,0.155
HTRA2 (HtrA serine peptidase 2),2,0.25,0.155
HTRA2 (HtrA serine peptidase 2),3,0.06,0.155
HTRA2 (HtrA serine peptidase 2),4,-0.65,0.155
HTRA2 (HtrA serine peptidase 2),5,1.2,0.155
HTRA2 (HtrA serine peptidase 2),6,0.57,0.155
